Literature values, collected in patent US5229419A, “Chemotherapeutically active acetogenins” (Purdue Research Foundation, priority 1992, dated 1993).
The name of at least one read-out is uncertain.

Tested on: PS
Settings: cited from earlier work

CCCCCCCCCCC(O)C1CCC(C2CCC(C(O)CCCCCCCCCCC(O)CC3=CC(C)OC3=O)O2)O1 (stereo not shown) [rolliniastatin]
ED50 in cell culture: 4.5×10^-5 μg/m
